Measured values taken from patent EP0556962A1 (RICHTER GEDEON VEGYESZETI GYAR R.T., priority 1992, dated 1993).
Strings that start with PEPTIDE1 are HELM notation: dots part the residues, brackets hold end groups and non-standard residues.

Assay: general procedure: solution-phase peptide synthesis; pentafluorophenyl active esters (Boc-/Z-amino acid-OPfp), triethylamine

Substance	step yield (coupling step) [%]	step yield (late stage modification step, 2HCl) [%]
PEPTIDE1{[pHOPA].[dW].F.[dW].[LeuPsiCH2NHLeu].[am]}$$$$V2.0	85	–
Boc-Phe-D-Trp-Leu ψ(CH₂NH)Leu-NH₂	82	–
H-D-Trp-Phe-D-Trp-Leu ψ(CH₂NH)Leu-NH₂·2HCl	–	92
Boc-D-Trp-Phe-D-Trp-Leu ψ-(CH₂NH)Leu-NH₂	90	–
